Experiment: Real-time conductance change of silicon nanowires before and after dNTP addition
Settings: equimolar solutions (10 μM) in 0.05×PBS buffer; dATP injected at 1000 s, supercharged dTTP at 2000 s

SMILES | change in conductance of the nanowires
Nc1ncnc2c1ncn2[C@H]1C[C@H](O)[C@@H](COP(=O)(O)OP(=O)(O)OP(=O)(O)O)O1 [dATP, deoxyandenosinetriphosphate, reference compound] | 16%
[N-]=[N+]=NC(COc1cccc(C(=O)NCCNC(=O)c2cc(C(=O)O)cc(C(=O)O)c2)c1)OCCOCC(=O)NCC#Cc1cn([C@H]2C[C@H](O)[C@@H](COP(=O)(O)OP(=O)(O)OP(=O)(O)O)O2)c(=O)[nH]c1=O (some centres unmarked) [SC-TTP, Penta-Triethylammonium Cleavable SCTTP] | 20%

— patent US11180523B2, “Design, synthesis and use of synthetic nucleotides comprising charge mass tags” (QuantuMDx Group Limited, priority 2016, dated 2021)
